Test [1] has as its target T1, eEF3 (eukaryotic elongation factor 3), C-terminally TAP-tagged (S. cerevisiae) (UniProt P16521).
T1 sequence: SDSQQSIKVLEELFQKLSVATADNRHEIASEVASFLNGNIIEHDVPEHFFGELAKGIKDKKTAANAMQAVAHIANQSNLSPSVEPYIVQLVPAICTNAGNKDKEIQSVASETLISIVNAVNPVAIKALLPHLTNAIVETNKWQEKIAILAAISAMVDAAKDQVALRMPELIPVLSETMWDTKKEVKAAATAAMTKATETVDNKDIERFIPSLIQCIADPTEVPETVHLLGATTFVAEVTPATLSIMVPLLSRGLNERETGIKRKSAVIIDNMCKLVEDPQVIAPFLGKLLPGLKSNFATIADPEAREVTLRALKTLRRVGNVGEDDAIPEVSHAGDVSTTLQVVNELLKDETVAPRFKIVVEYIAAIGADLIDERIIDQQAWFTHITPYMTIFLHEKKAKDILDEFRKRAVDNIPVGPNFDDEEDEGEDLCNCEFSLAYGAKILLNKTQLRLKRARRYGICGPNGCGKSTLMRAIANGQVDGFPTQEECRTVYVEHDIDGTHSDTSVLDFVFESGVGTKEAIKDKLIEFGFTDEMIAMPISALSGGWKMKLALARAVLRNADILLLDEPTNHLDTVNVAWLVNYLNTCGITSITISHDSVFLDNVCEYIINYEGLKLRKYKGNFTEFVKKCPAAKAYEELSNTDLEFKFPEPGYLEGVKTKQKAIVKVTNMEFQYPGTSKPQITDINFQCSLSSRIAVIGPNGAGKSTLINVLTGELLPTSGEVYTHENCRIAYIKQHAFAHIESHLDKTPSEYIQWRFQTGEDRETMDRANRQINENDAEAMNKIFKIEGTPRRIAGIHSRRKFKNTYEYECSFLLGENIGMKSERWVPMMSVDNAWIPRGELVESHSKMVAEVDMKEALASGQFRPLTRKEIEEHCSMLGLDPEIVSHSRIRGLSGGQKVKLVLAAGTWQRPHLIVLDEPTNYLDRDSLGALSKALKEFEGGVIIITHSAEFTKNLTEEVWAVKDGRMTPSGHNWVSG
Put plainly: cryo-EM structure.

By UniProt entry, the sequences of proteins in these tests, tags left out.
UniProt P0CX43: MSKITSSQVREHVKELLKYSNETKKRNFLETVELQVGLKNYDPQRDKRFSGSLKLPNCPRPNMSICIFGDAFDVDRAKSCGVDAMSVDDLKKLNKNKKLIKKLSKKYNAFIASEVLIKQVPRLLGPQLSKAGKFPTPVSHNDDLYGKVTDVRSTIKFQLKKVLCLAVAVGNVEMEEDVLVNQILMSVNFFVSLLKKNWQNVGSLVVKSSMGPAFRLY

The target in test [2] is T1, eEF3 (eukaryotic elongation factor 3), C-terminally TAP-tagged (S. cerevisiae). Nature of the test: cryo-EM structure. The source holds these as a separate data set.

Where two headings read alike, the source gives them in different places. These are yes or no findings as the source states them, for the method shown. Some results given as binding are weak or reduced against the parent protein; the word gives no strength. Tags and fused reporters may be left off the sequences shown.

This is an account of results in publication doi:10.1101/2020.07.01.182105.

On to “ribosomal protein uL1 (from UniProt P0CX43 1-217)”, for which the binding result in test [1] is listed as “binds”.

B1: ribosomal protein uL18 (protein, UniProt P26321 1-297)
chain: MAFQKDAKSSAYSSRFQTPFRRRREGKTDYYQRKRLVTQHKAKYNTPKYRLVVRFTNKDIICQIISSTITGDVVLAAAYSHELPRYGITHGLTNWAAAYATGLLIARRTLQKLGLDETYKGVEEVEGEYELTEAVEDGPRPFKVFLDIGLQRTTTGARVFGALKGASDGGLYVPHSENRFPGWDFETEEIDPELLRSYIFGGHVSQYMEELADDDEERFSELFKGYLADDIDADSLEDIYTSAHEAIRADPAFKPTEKKFTKEQYAAESKKYRQTKLSKEERAARVAAKIAALAGQQ
B1: the binding entry in test [2] is “binds”.

B2: ribosomal protein uS13 (protein, UniProt P0CX55 1-146)
chain: MSLVVQEQGSFQHILRLLNTNVDGNIKIVYALTTIKGVGRRYSNLVCKKADVDLHKRAGELTQEELERIVQIMQNPTHYKIPAWFLNRQNDITDGKDYHTLANNVESKLRDDLERLKKIRAHRGIRHFWGLRVRGQHTKTTGRRRA
Turning to B2, the binding result in test [2] is listed as “binds”.
